Reference: PMC6269442, “High resolution X-ray and NMR structural study of human T-cell immunoglobulin and mucin domain containing protein-3” (Scientific Reports, 2018)

By UniProt entry, the sequences of proteins in these tests, tags left out. Where a name states a change or a piece, a line headed by the entry shows the natural chain unless it says otherwise. Chains listed by the source or under a name are the forms on record and can include a tag or linker.
tagless human TIM-3 IgV domain (Q8TDQ0, form named): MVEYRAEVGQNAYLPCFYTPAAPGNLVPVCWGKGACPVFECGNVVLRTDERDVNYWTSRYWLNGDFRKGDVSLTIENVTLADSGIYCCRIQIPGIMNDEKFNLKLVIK
UniProt P13688: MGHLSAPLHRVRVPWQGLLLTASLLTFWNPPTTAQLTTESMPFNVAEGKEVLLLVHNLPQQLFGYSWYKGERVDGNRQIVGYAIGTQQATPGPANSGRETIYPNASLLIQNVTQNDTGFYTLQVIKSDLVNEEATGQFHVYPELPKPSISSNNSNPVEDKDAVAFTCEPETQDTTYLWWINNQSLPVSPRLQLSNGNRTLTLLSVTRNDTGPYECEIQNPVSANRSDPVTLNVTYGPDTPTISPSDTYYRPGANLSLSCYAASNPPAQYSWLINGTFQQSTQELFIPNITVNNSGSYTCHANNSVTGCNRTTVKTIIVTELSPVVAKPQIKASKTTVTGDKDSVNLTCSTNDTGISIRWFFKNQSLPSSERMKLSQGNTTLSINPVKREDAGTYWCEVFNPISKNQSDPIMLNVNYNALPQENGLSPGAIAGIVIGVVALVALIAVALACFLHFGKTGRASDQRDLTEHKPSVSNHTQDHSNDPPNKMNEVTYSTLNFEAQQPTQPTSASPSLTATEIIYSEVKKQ

How the values were obtained:
[1] = biological target: tagless human TIM-3 IgV domain (human) (UniProt Q8TDQ0); assay: ELISA; antibody blockade: plate-bound tagless hTIM-3 IgV; 4 μM GST-tagged hCEACAM1 IgV with anti-CEACAM1 monoclonal 5F4 (0–1 μM) or mouse IgG1 isotype control; both purified
[2] = biological target: tagless human CEACAM1 IgV domain (human) (UniProt P13688); assay: ELISA; peptide blocking: plate-bound tagless hCEACAM1; hTIM-3 Fc fusion protein (4 μM) incubated with 10 μM hTIM-3 C-C′ loop-derived peptide or 10 μM scrambled control peptide; both purified

| binding [1] | binding [2] | Molecule |
| --- | --- | --- |
| binds |  | glutathione-S-transferase (GST) tagged hCEACAM1 IgV-domain protein (from UniProt P13688) (domain or fragment) |
|  | binds | CPVFECGNVVLRTDERDVNY [hTIM-3 C-C′ loop-derived peptide (amino acids 58–77)] |

No constants are given. Whether binding was seen depends on the method and setting. Binding can be weak; no strength is given.
